According to PubChem BioAssay AID1259354 (Paczesny and Yang Labs, IUPUI and University of Michigan, 2018):
Screen size: about 78,000 compounds; about 1,800 (2.3%) were called active. The shares of active, inactive and inconclusive entries below differ from those in the screen. No stated cut-off is given here; in the data, active means inhibition above about 30%; inconclusive means mostly about 10% to 28%; inactive means weaker than that.

By UniProt entry, the sequences of proteins in these tests, tags left out. Where a name states a change or a piece, a line headed by the entry shows the natural chain unless it says otherwise.
UniProt Q01638: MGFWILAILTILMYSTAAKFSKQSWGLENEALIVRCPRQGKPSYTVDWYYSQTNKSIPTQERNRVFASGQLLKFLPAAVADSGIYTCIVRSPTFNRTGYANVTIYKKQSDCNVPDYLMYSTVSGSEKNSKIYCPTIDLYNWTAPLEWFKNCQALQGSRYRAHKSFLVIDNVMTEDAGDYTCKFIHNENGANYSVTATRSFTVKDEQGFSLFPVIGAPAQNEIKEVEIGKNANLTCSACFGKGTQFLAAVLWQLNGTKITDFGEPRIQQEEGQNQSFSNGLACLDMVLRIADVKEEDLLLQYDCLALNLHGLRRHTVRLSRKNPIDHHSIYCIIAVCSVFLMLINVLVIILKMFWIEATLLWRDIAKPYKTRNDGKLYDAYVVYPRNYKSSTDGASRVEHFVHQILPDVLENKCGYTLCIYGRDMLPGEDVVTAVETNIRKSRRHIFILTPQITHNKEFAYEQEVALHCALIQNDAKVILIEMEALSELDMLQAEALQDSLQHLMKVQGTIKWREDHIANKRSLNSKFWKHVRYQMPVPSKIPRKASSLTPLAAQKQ

target: Interleukin-1 receptor-like 1 (Homo sapiens) (UniProt Q01638); assay: blocks human ST2 binding to IL-33, primary screen, biochemical, AlphaLISA (AID 1259354); conditions: AlphaLISA ST2-Fc/biotin-IL-33 interaction, 1 h; at 17 µM, hits give high values

SMILES	inhibition
O=[N+]([O-])c1cccc(S(=O)(=O)Nc2ccc(Cl)cn2)c1	inactive
CN(C)c1oc(COc2ccc(Cl)cc2Cl)nc1S(=O)(=O)c1ccccc1	active: 36%
CCC(CC)C(=O)Nc1ccc(Nc2nc(C)cc(Nc3ccccc3)n2)cc1	inactive
COC(=O)c1cc(NC2c3ccccc3C(=O)N2Cc2ccccc2)cc(C(=O)OC)c1 (stereo unspecified)	inconclusive: 19%
CN(c1ccccc1)S(=O)(=O)c1ccc(C(=O)Nc2nnc(-c3ccc(Cl)s3)o2)cc1	inconclusive: 16%
O=C1CC(NC2CCN(Cc3ccco3)CC2)CN1CCc1ccccc1 (stereo unspecified)	inactive
C=CCN(Cc1nc(-c2ccccc2)no1)C(=O)Cc1ccc2c(c1)NC(=O)CO2	inconclusive: 22%
COc1ccc(OC)c2c(NCCCN3CCOCC3)cc(C(F)(F)F)nc12	inconclusive: 12%
COc1ccccc1/C=C1/SC(=Nc2ccccc2Cl)NC1=O	active: 33%
COc1cccc(-n2c(=O)c3c(C)c(C)sc3n(CC(=O)Nc3cc(C)[nH]n3)c2=O)c1	inactive
COc1coc(CN2CCCC(CCc3ccccc3C)C2)cc1=O (stereo unspecified)	inconclusive: 10%
Cc1ccccc1NC1=C(N)C(=O)c2ccccc2C1=O	active: 87%
CC1=C(C(=O)OCc2ccccc2)C(c2c(F)cccc2Cl)n2ncnc2N1 (stereo unspecified)	inactive
COc1cc2c(cc1NC(=O)c1ccccc1Br)oc1ccccc12	inconclusive: 13%
CCCCCCCCCC(=O)OC1C(OC2(CO)OC(CO)C(O)C2OC(=O)C(C)C)OC(CO)C(OC(=O)C(C)C)C1OC(=O)C(C)C (stereo unspecified)	inconclusive: 11%
COc1ccc(C2CC(=O)N3CN(c4ccc(Cl)cc4)CSC3=C2C#N)cc1 (stereo unspecified)	inactive
COc1cc(C=O)cc(Cl)c1OCc1ccc(Br)cc1	inactive
O=C(C[C@@H]1O[C@H](CNC(=O)Nc2cccc(F)c2)[C@@H](O)[C@H]1O)NCCN1CCOCC1	inconclusive: 13%
CCc1ccccc1NC(=O)c1cccc([N+](=O)[O-])c1	inactive
Cc1cccc(Nc2nc(-c3nnc(-c4cccc(C)c4)o3)nc3ccccc23)c1	inconclusive: 28%
COc1ccc(S(=O)(=O)N=C2C=C(Nc3ccccc3)C(=O)c3ccccc32)cc1	active: 85%

SMILES	inhibition
CC(C)n1c(=N)c(C(=O)NC2CCCCC2)cc2c(=O)n3ccccc3nc21	inconclusive: 11%
CCOc1ccc(C(=O)Nc2c(C)cccc2CC)cc1[N+](=O)[O-]	inactive
Cc1nc(Oc2ccccc2)c2c3c(sc2n1)CCCC3	inactive
Cc1cccc(Cc2c(C)nc3nc(SCC(=O)N4CCC5(CC4)OCCO5)nn3c2C)c1	inactive
OCc1ccc(CN2C[C@H](O)C[C@H]2c2nc(-c3ccncc3)no2)o1	inconclusive: 16%
CCN1CCCC1CNC(=O)CCC1CCN(Cc2ccccn2)CC1 (stereo unspecified)	inactive
O=C1C2C3CCC(C3)C2C(=O)N1c1cccc(O)c1 (stereo unspecified)	inactive
C=CCOc1ccc(/C=C2\N=C(c3cccs3)OC2=O)cc1OC	inconclusive: 11%
CC(C)c1cncnc1N1CC(c2cccnc2)C1	inconclusive: 20%
COc1ccccc1Nc1nc(-c2ccccc2O)nc2ccccc12	inconclusive: 15%
Nc1nc2ccc(Oc3ccc4nc(N)sc4c3)cc2s1	inactive
Cc1ccc(Oc2cc(NC(=O)CCCn3nc([N+](=O)[O-])c(Cl)c3C)cc([N+](=O)[O-])c2)cc1	inconclusive: 10%
COc1ccc(CCNc2oc(COc3ccccc3F)nc2C#N)cc1OC	inconclusive: 23%
Cc1cc(C)nc(NC(=O)c2sc3ccccc3c2Cl)c1	inconclusive: 21%
COc1cccc(-n2c(=O)c3sccc3n(CC(=O)NCc3ccco3)c2=O)c1	inconclusive: 11%
O=C(CSc1ccccc1)c1c[nH]c2ccccc12	inconclusive: 19%
Cc1cc(C)n(CC(C)NCc2cnc(-c3ccccc3C)s2)n1 (stereo unspecified)	inconclusive: 13%
O=C(O)c1ccccc1NC1SC(=O)N(c2ccccc2)C1=O (stereo unspecified)	inconclusive: 12%
COc1ccc(N2C(=O)C3CCCN3C2c2cccc(F)c2)cc1Cl (stereo unspecified)	inconclusive: 11%
CC(C)Cc1nc(CN(C)Cc2cc3n(n2)CCCNC3)no1	inconclusive: 18%
Cc1ccc(C(=O)N2CCC(C3=CCN(CCO)CC3)CC2)cc1F	inconclusive: 14%

SMILES	inhibition
CC(c1ccccc1)C1C(C#N)=C(N)OC2=C1C(=O)CCC2 (stereo unspecified)	inconclusive: 10%
O=C1CSC(c2cccc(Cl)c2Cl)N1c1ccc(O)cc1 (stereo unspecified)	inactive
COCCNC(=S)N[C@H]1C[C@H]2C(=O)NC[C@@H](CCC(=O)NCc3ccc(OC)cc3)N2C1	inconclusive: 24%
COc1ccc(CNC(=O)C[C@@H]2O[C@H](CNS(C)(=O)=O)[C@@H](O)[C@H]2O)cc1	inactive
COc1ccc2cc3cc(C(=O)N(C)c4ccc(Cl)cc4)oc3nc2c1	inactive
C=CCNC(=O)c1cc(-c2ccccc2)nc2c(C)cccc12	inactive
Cc1ccn2c(NC(=O)c3ccc4c(c3)OCO4)c(-c3cccs3)nc2c1	inconclusive: 10%
CC1CC(C)CN(c2ncnc3nc[nH]c23)C1 (stereo unspecified)	inconclusive: 11%
O=C(NCC1(Cn2cccn2)CC1)c1c(O)cccc1O	inconclusive: 12%
CC(C)C(NC(=O)Cc1noc2ccccc12)c1nnc2n1CCNCC2 (stereo unspecified)	inconclusive: 11%
Nc1ccc(Cl)c2c1C(=O)c1ccccc1C2=O	active: 42%
COC(=O)Cn1c(=O)c2c(nc3n2CCN3c2cc(C)cc(C)c2)n(C)c1=O	inconclusive: 13%
COc1cccc(F)c1-c1cc(NC(C)C)ncn1	inconclusive: 19%
c1ccc2c(c1)CCC[C@H]2Nc1nc2ccccc2[nH]1	inconclusive: 11%
Cc1cccc(N(CC(=O)Nc2ccc(F)cc2)S(C)(=O)=O)c1C	inconclusive: 24%
CCOC(=O)C1CCCN(c2ncnc3c2cnn3-c2ccccc2)C1 (stereo unspecified)	inactive
COC(=O)c1c(C)nc2ccccc2c1C(=O)O	inconclusive: 13%
Cc1cccc(C2=N/C(=C\c3ccccc3)C(=O)O2)c1	active: 46%
COC(=O)C1C(=O)C2=C(CC1C)NC(C)=C(C(=O)OC1CCCCC1)C2c1ccc(Cl)cc1 (stereo unspecified)	inactive

A draw from above in order of count of non-hydrogen atoms, rising:
SMILES	inhibition
CC1CC(C)CN(c2ncnc3nc[nH]c23)C1 (stereo unspecified)	inconclusive: 11%
Cc1cccc(C2=N/C(=C\c3ccccc3)C(=O)O2)c1	active: 46%
COc1ccc(N2C(=O)C3CCCN3C2c2cccc(F)c2)cc1Cl (stereo unspecified)	inconclusive: 11%
